Results from patent US20090053138A1, “Stabilized Aptamers to Platelet Derived Growth Factor and their Use as Oncology Therapeutics” (priority 2002, published 2009).
Some entries share one result that the patent states for a list of compounds. [HEG] = hexaethylene glycol spacer; {PEG40k} = 40 kDa polyethylene glycol; [invdT] = inverted (3'-3') thymidine

Protein sequences, listed by entry. Tags and fused reporters are not part of them. Residues count along the entry.
UniProt P01127, 82-190 limits assumed: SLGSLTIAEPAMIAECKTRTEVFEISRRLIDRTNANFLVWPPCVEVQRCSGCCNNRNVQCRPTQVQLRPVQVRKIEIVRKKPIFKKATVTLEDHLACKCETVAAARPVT

Biological target: PDGF BB (Homo sapiens, UniProt P01127)
Experiment: 3T3 cell proliferation assay (PDGF-BB induced)
Format: cell-based, rat
Design: purchased PeproTech, Rocky Hill, N.J
Details: PDGF-BB 50 ng/ml; read-out: IC50 values routinely displayed
Protocol: 3T3 cells, a rat fibroblast cell line (ATCC, Manassas, Va.), were plated 3,000 cells/well in a 96 well plate one day prior to the start of the assay in 100 ul DMEM/10% FCS. The following day, cells were washed once with straight DMEM and then 75 ul DMEM/0.8% FCS was added to each well. […] Cells were incubated for 3 days. Following incubation 10 ul MTT (Promega, Madison, Wis.) was added to each well and incubated for an additional 1.5 hours. Media was then removed, 200 ul Isopropanol (2-propanol) was added to each well, cells were re-suspended thoroughly and absorbance at 570 nm was read on a 96 well plate reader.
3T3 cells, which are derived from a rat fibroblast cell line (ATCC, Manassas, Va.), were used in a proliferation assay to test potency of modified ARC513 aptamers. […]
(§1) Cells were incubated for 3 days. […] Media was removed, 200 μl Isopropanol (2-propanol) was added to each well, cells were re-suspended thoroughly and absorbance at 570 nm was read on a 96 well plate reader. […]
as §1
Cells were incubated for 3 days. […] Media was removed, 200 dl Isopropanol (2-propanol) was added to each well, cells were re-suspended thoroughly and absorbance at 570 nm was read on a 96 well plate reader.

For “5′-(SEQ ID NO: 1)-HEG-(SEQ ID NO:2)-HEG-(SEQ ID NO:3)-3′-dT-3′ (chain 1 CAGGCUACG; chain 2 CGTAGAGCAUCA; chain 3 TGATCCUG; piece 1: 2'-fluoro at 6, 8, 2'-O-methyl at 9, 3' [HEG], other sugars and backbone not given here; piece 2: 2'-O-methyl at 5, 7, 12, 2'-fluoro at 10, 11, 3' [HEG], other sugars and backbone not given here; piece 3: 2'-fluoro at 5, 6, 7, 2'-O-methyl at 8, 3' [invdT], other sugars and backbone not given here) [ARC126]”, the IC50 was under 20 nM.

“5′-[40 K PEG]-(SEQ ID NO:1)-HEG-(SEQ ID NO:2)-HEG-(SEQ ID NO:3)-3′-dT-3′ (chain 1 CAGGCUACG; chain 2 CGTAGAGCAUCA; chain 3 TGATCCUG; piece 1: 2'-fluoro at 6, 8, 2'-O-methyl at 9, 5' {PEG40k}, 3' [HEG], other sugars and backbone not given here; piece 2: 2'-O-methyl at 5, 7, 12, 2'-fluoro at 10, 11, 3' [HEG], other sugars and backbone not given here; piece 3: 2'-fluoro at 5, 6, 7, 2'-O-methyl at 8, 3' [invdT], other sugars and backbone not given here) [ARC127]” gave an IC50 of under 20 nM.
